One assay has as its target T1, BirA-fusion PLEK2 (UniProt Q9NYT0).
T1 sequence: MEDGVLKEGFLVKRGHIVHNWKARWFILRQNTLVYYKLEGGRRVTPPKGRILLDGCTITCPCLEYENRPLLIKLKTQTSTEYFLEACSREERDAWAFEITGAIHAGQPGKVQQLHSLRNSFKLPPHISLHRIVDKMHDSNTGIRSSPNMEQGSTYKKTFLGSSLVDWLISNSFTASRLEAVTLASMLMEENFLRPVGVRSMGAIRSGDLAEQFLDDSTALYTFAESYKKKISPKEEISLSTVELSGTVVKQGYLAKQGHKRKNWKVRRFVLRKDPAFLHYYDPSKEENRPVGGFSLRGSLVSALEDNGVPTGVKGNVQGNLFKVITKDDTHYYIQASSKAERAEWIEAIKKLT
Nature of the assay: proximity labelling; biotin conjugation by BirA-fusion PLEK2 in HEK293T cells, streptavidin pulldown of the lysate, Western blotting.

The next assay deals with T2, Flag-PPIL2 (UniProt Q13356).
T2 sequence: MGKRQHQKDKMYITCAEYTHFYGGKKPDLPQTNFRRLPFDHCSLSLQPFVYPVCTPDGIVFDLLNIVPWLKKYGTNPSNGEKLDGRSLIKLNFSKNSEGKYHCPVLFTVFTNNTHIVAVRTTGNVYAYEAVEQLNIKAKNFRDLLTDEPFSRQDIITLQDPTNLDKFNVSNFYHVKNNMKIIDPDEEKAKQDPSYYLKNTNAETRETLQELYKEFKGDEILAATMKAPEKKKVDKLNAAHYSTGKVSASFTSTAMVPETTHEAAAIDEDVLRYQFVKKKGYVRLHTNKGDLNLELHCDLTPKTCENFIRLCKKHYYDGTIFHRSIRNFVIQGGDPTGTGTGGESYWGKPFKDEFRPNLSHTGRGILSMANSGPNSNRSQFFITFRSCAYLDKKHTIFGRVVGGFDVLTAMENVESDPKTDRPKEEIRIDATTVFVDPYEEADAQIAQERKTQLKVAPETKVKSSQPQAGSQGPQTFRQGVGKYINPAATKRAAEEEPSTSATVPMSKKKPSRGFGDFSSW
Description: affinity purification with mass spectrometry; IP of Flag-tagged PPIL2, Coomassie stain, mass spectrometry.

Results are given in words; binding and its absence hold for the method and conditions named. In cells and extracts the contact can be indirect. A yes stands for co-enrichment or nearness to the bait. Other partners may have been found. Sequences can lack the tags named with a protein.

B1: PPIL2 (peptidylprolyl isomerase-like 2) in HEK293T lysate (protein, UniProt Q13356 1-520)
chain: T2 sequence
In the case of B1, the binding entry with BirA-fusion PLEK2 is listed as “binds”.

B2: CRNKL1 (protein, UniProt Q9BZJ0 1-848)
chain: MTATVENLTFQKDTLGNAVDKNTSRLELRSYSLAGRHGSTEPLVLAWSSQFRRLTWGCALDALHRSPCVAASQHGVTHLIRSSRTPHSTRCRKEDAQPGHHGNGAASVTAQARGQRSVLQVPLPVPRSCLFSESFVVSVSSQSRFLASVPGTGVQRSTAADMAASTAAGKQRIPKVAKVKNKAPAEVQITAEQLLREAKERELELLPPPPQQKITDEEELNDYKLRKRKTFEDNIRKNRTVISNWIKYAQWEESLKEIQRARSIYERALDVDYRNITLWLKYAEMEMKNRQVNHARNIWDRAITTLPRVNQFWYKYTYMEEMLGNVAGARQVFERWMEWQPEEQAWHSYINFELRYKEVDRARTIYERFVLVHPDVKNWIKYARFEEKHAYFAHARKVYERAVEFFGDEHMDEHLYVAFAKFEENQKEFERVRVIYKYALDRISKQDAQELFKNYTIFEKKFGDRRGIEDIIVSKRRFQYEEEVKANPHNYDAWFDYLRLVESDAEAEAVREVYERAIANVPPIQEKRHWKRYIYLWINYALYEELEAKDPERTRQVYQASLELIPHKKFTFAKMWILYAQFEIRQKNLSLARRALGTSIGKCPKNKLFKVYIELELQLREFDRCRKLYEKFLEFGPENCTSWIKFAELETILGDIDRARAIYELAISQPRLDMPEVLWKSYIDFEIEQEETERTRNLYRRLLQRTQHVKVWISFAQFELSSGKEGSLTKCRQIYEEANKTMRNCEEKEERLMLLESWRSFEEEFGTASDKERVDKLMPEKVKKRRKVQTDDGSDAGWEEYFDYIFPEDAANQPNLKLLAMAKLWKKQQQEKEDAEHHPDEDVDESES
For B2, the binding entry with Flag-PPIL2 is “binds”.

(Values after paper PMC12208539.)
